Data taken from PubChem BioAssay AID540256 (National Center for Advancing Translational Sciences (NCATS), 2011).
“And” between values parts separate entries of the source, which are not always exact repeats. Identical values can stand only once. Hit rate of the full screen: of about 300,000 compounds, about 3,700 (1.2%) were called active. The shares of active, inactive and inconclusive entries below differ from those in the screen. Calls come from the whole dose curve; tested in HEK293 cells. A potency beside an inconclusive call is a rough fit, not a confirmed value.

Test: qHTS for Inhibitors of binding or entry into cells for Lassa Virus; note: nearly all actives have a fitted effect of over 50% in size
Conditions: Lassa virus pseudotype entry inhibition, cell reporter; series mostly up to 37.9 µM
Potency is the fitted concentration of half-maximal effect.

Compound | Potency
O=C(NCCc1ccccn1)c1cccc(S(=O)(=O)N2CCc3ccccc32)c1 | inactive
c1cnc(N2CCN(c3ccc4ccccc4n3)CC2)nc1 | inconclusive: 35.5 µM [inhibitor, single point]
CCOc1ccc2nc(SCC(=O)NNC(=O)c3ccco3)c(C)cc2c1 | inconclusive: 22.4 µM [inhibitor, partial curve, poor fit]
Cn1ccnc1SCC(=O)NC1CCCC1 | inactive
N#CC(c1ccccc1)c1ccc2c(C(F)(F)F)cc(C(F)(F)F)nc2n1 (stereo not given) | active: 11.2 µM
COCCn1c(SCC(=O)NCCCN2CCCC2=O)nc2ccccc2c1=O | inconclusive: 0.282 µM [inhibitor, full curve, poor fit]
CCc1ccc2nc(N(CCCN(C)C)C(=O)c3ccc(S(=O)(=O)N4CCc5ccccc5C4)cc3)sc2c1 | inactive
C=CCn1c(SCC(=O)c2cccs2)nnc1-c1cccc(OC)c1 | inactive
NS(=O)(=O)c1ccc(CCNC(=O)CNCCc2ccccc2)cc1 | inactive
COc1ccccc1C(O)Cc1nc2ccccc2n1C (stereo not given) | inactive
Cc1c(Cl)cccc1N/C(SCC(=O)N1CCCCCC1)=C(/C#N)c1nc2ccccc2s1 | inconclusive: 35.5 µM [inhibitor, single point]
Cc1cccc(-c2nc(CN3CCCC(C(=O)NCCc4ccc(Cl)cc4)C3)c(C)o2)c1 (stereo not given) | inconclusive: 35.5 µM [inhibitor, single point]
COc1ccccc1NC(=O)C(Cc1ccc(Cl)cc1)c1nn[nH]n1 (stereo not given) | inconclusive: 0.0041 µM [inhibitor, full curve, poor fit]
CC(=O)N1CCc2cc(S(=O)(=O)CCC(=O)NCc3ccc(C)o3)ccc21 | inconclusive: 5.62 µM [inhibitor, single point]
Cc1ccc(-c2nc3ccccc3o2)cc1NC(=O)Cc1ccc(Cl)cc1 | inconclusive: 17.8 µM [inhibitor, partial curve, poor fit]
CCCCn1c(=O)[nH]c(=O)c2c(C(=O)OCC)cc(-c3cccs3)nc21 | inconclusive: 1.41 µM [inhibitor, full curve, poor fit]
COc1ccc(OCCNc2cc(N3CCOCC3)ccc2[N+](=O)[O-])cc1 | inactive
CNC(=O)NC(=O)COc1ccc2oc3c(c2c1)CCCC3 | inactive
Oc1ccc(Cl)cc1CNc1ccccn1 | inconclusive: 12.6 µM [inhibitor, partial curve]
COc1cc(C(=O)Nc2ccc(-c3nc4cc(C)ccc4o3)c(O)c2)cc(OC)c1OC | inconclusive: 32.6 µM [inhibitor, single point]
COc1cc(N2CCCC2)c(OC)cc1/C=C(/C#N)c1ccc(F)cc1 | inconclusive: 35.5 µM [inhibitor, single point]
CCOC(=O)C(Cc1c[nH]c2ccccc12)NC(=O)c1ccccc1Br (stereo not given) | inconclusive: 5.62 µM [activator, full curve, poor fit]

Compound | Potency
Cc1ccccc1CCNC(=O)c1ccc2c(c1)nc1n2CCCCC1 | inconclusive: 35.5 µM [inhibitor, single point]
COc1ccc2cc3[n+](cc2c1OC)CCc1cc2c(cc1-3)OCO2 | inconclusive: 11.6 µM [inhibitor, partial curve, poor fit]
CCOC(=O)C1C(=O)C=C(Nc2ccccc2F)CC1c1ccccc1 (stereo not given) | inactive
COCCn1c(SCC(=O)N2CCCCC2)nc2c(c1=O)SCC2 | inconclusive: 28.2 µM [activator, partial curve, poor fit]
Cc1[nH]c2ccccc2c1C(=O)CN1C(=O)NC(C)(c2ccc(Cl)cc2Cl)C1=O (stereo not given) | inconclusive: 35.5 µM [inhibitor, single point]
Fc1cccc(F)c1-n1c(CN2CCCCC2)csc1=S | inactive
CCOC(=O)Nc1sc2nc(C)cc(C)c2c1-n1cccc1 | inconclusive: 28.2 µM [inhibitor, single point]
CCN1CCN(c2ccc(S(=O)(=O)N3CCCCC3)cc2NC(=O)c2cc3ccccc3o2)CC1 | inactive
COC(=O)c1cc(NC(=O)C(C)c2ccc(CC(C)C)cc2)ccc1O (stereo not given) | inconclusive: 35.5 µM [inhibitor, single point]
CCOC(=O)c1ccc(NC(=O)CCc2nc(-c3ccccc3)no2)cc1 | inconclusive: 18.3 µM [inhibitor, single point]
COc1ccc(OC)c(S(=O)(=O)NCC(c2cccs2)S(=O)(=O)c2ccc(F)cc2)c1 (stereo not given) | inconclusive: 35.5 µM [inhibitor, single point]
COc1ccc(C(C)(C)C)cc1NC(=O)CNc1cccc2ccccc12 | inconclusive: 22.4 µM [inhibitor, partial curve]
COc1ccccc1CNC(=O)c1ccc2c(=O)n(CC3CCCO3)c(=S)[nH]c2c1 (stereo not given) | inactive
COc1ccc(Cn2c(C(=O)O)c(CNCc3ccc(SC)cc3)c3ccc(OC)cc32)cc1 | inconclusive: 35.5 µM [inhibitor, single point]
COc1ccc(-c2cc3ccc(OCc4nn[nH]n4)cc3oc2=O)cc1 | inconclusive: 29.1 µM [inhibitor, single point]
C=CCOc1ccc(/C=C2\SC(N3CCCCC3)=NC2=O)cc1 | inconclusive: 0.562 µM [inhibitor, full curve, poor fit]
Cc1cc(NC(=O)CS(=O)(=O)c2cn(Cc3cccc(F)c3)c3ccccc23)no1 | inconclusive: 17.8 µM [inhibitor, partial curve]
CCNc1nc(Oc2ccc(OC)cc2)cc(C(F)(F)F)n1 | inconclusive: 22.4 µM [inhibitor, partial curve, poor fit]
CCc1ccc(NS(=O)(=O)c2[nH]ncc2C(=O)OC)cc1 | inactive
Cc1ccccc1Cn1c(=O)n(-c2ccc(Cl)cc2)c(=O)c2c3c(sc21)CCCC3 | inactive
O=C(COc1ccccc1F)Nc1ccc(S(=O)(=O)NCc2ccco2)cc1 | inconclusive: 25.1 µM [inhibitor, single point]
CCn1c(=N)n(CC(=O)c2ccc(Cl)c(Cl)c2)c2ccccc21 | inconclusive: 35.5 µM [inhibitor, single point]

Compound | Potency
COc1ccc(NS(=O)(=O)c2cc(NC(=O)C3CCCCC3)ccc2N2CCOCC2)cc1 | inconclusive: 35.5 µM [inhibitor, single point]
CCN(CC)S(=O)(=O)c1ccc(OC(C)C)c(NC(=O)c2c3c(nc4ccccc24)CCN(Cc2ccccc2)C3)c1 | inconclusive: 23.1 µM [inhibitor, single point] and inconclusive: 11.2 µM [inhibitor, single point]
Cc1nc2ncccn2c1-c1csc(NCc2ccco2)n1 | inactive
Cc1cccc(C(=O)OCC(=O)NC(=O)Cc2ccccc2)c1O | inconclusive: 35.5 µM [inhibitor, single point]
Cc1ccc(-c2ccc(CN3C(C(C)C)C(=O)N(Cc4cn(CCC5OCCO5)nn4)CCS3(=O)=O)cc2)c(C)c1 (stereo not given) | inconclusive: 0.0353 µM [activator, full curve, poor fit]
Cc1cccc(N(C(=O)c2snc(C(N)=O)c2N)C(C(=O)NCC2CCCO2)c2c[nH]c3ccccc23)c1 (stereo not given) | inconclusive: 2.82 µM [inhibitor, full curve, poor fit]
Cc1ccccc1CN1CCN(CC(=O)NCc2ccccc2)CC1 | inconclusive: 10 µM [inhibitor, single point]
COc1ccccc1C(=O)N1CCN(c2cccc(C(F)(F)F)c2)CC1 | inconclusive: 0.891 µM [inhibitor, full curve, poor fit]
O=C(C[n+]1cc(Br)cc2ccccc21)c1ccc(Cl)cc1 | inconclusive: 3.98 µM [inhibitor, partial curve, poor fit]
Cc1ccc(OCCSc2ncnc3nc[nH]c23)cc1 | inconclusive: 2.51 µM [activator, partial curve]
CCCS(=O)(=O)c1c(S(=O)(=O)CCC)c2c(N)cccn2c1C(=O)c1ccc(OC)cc1 | inconclusive: 11.2 µM [inhibitor, partial curve, poor fit]
CC[C@@H]1Cc2cc(O)ccc2C2=C1c1ccc(O)cc1C[C@H]2CC | inconclusive: 0.82 µM [activator, full curve, poor fit]
Clc1ccc(Nc2ccc(Cl)nn2)cc1 | inactive
CCN(CC)S(=O)(=O)c1ccc(N2CCN(S(=O)(=O)c3ccc4c(c3)OCCO4)CC2)nc1 | inconclusive: 10 µM [inhibitor, partial curve, poor fit]
CC(NC(=O)CN(c1ccc(F)cc1)S(C)(=O)=O)c1ccccc1 (stereo not given) | inconclusive: 3.55 µM [inhibitor, partial curve, poor fit]
COc1ccc(-c2nn(-c3ccccc3)cc2C2NC(=O)NC(C)=C2C(=O)OC(C)C)cc1OC (stereo not given) | inconclusive: 2.24 µM [inhibitor, partial curve, poor fit]
CCOC(=O)C(CCCOc1ccc(C(C)CC)cc1)C(=O)OCC (stereo not given) | inconclusive: 1.78 µM [inhibitor, full curve, poor fit]
CC(C)(C)n1nnnc1C(c1cccs1)N(Cc1cccnc1)Cc1ccco1 (stereo not given) | inconclusive: 11.6 µM [inhibitor, partial curve, poor fit]
COc1ccccc1C(=O)N1c2ccccc2Sc2ccccc21 | inconclusive: 29.1 µM [inhibitor, single point]
COc1ccccc1CNc1ncnc2c1cnn2-c1ccc(C)cc1 | inactive
CCCn1c(-c2cccc([N+](=O)[O-])c2)nc2c1c(=O)[nH]c(=O)n2Cc1ccccc1 | inconclusive: 1.12 µM [inhibitor, partial curve, poor fit]
